In patent publication US20170363618A1, “AGE-MODIFIED CELLS AND METHODS FOR MAKING AGE-MODIFIED CELLS” (MEMORIAL SLOAN-KETTERING CANCER CENTER, priority 2015, published 2017):
At least one compound was matched to its structure with a doubt left.

Experiments:
[1] = system: young (348) and old (204) fibroblasts; assay: Immunofluorescence detection of aging marker expression in fibroblasts after three-day compound treatment; format: cell-based, human; conditions: for effect on markers in young cells compared to old cells / levels of the five markers of a younger state (H1, HP1α, H3K9me3, H3K27me3, LaminB1): 3-day culture
Method: Cell samples were all supplied by Coriell Cell Repositories. The cell line from a young individual (<20 years) was GM03348 (“348”). The cell line from an old individual (>65 years) was GM04204 (“204”).
Cells were cultured in human fibroblast medium made from 95% Gibco's Minimum Essential Medium, 4.5% fetal bovine serum, and 0.5% Penicillin/Streptomycin. Cells were plated on 15 cm plates and passaged every 2-3 days as necessary, and fed every other day. For experimentation, cells were plated in 96 well plates or 6 well plates. Before fixation, cells were treated with a preextraction buffer containing 20 mM Hepes pH 7.9, 0.5% Triton X-100, 50 mM NaCl, and 300 mM sucrose for 7 minutes at 4° C. to reduce the high levels of background seen in initial stainings. Cells were then fixed with 4% paraformaldehyde for 15 minutes at room temperature.
After fixing, cells were incubated in Permeablization Buffer containing 0.3% Triton X-100 and 1% BSA in PBS for 35 minutes at room temperature. Cells were then incubated with primary antibodies to markers (1:1000 in PBS) at 4° C. overnight. Following incubation, cells were washed 3× with PBS, then incubated with secondary antibodies (1:500 in PBS) for 30 minutes at room temperature, protected from light. Following this incubation, cells were washed 1× with PBS, then incubated with DAPI 1:1000 in PBS for 7 minutes at room temperature, protected from light, then washed 2× with PBS. Stainings were imaged using either using the Hamamatsu Olympus IX81 microscope, or the PerkinElmer Operetta High Content Imaging System. The expression level of each marker was determined relative to the untreated control on the same treatment plate (FIGS. 11, 13, 15 and 16), or to the average of the untreated controls across all treatment plates for the same marker (FIGS. 12 and 14).
Imaging of immunofluorescence was done using the PerkinElmer Operetta High Content Imaging System. Each well had several (>15) random spots in each plate imaged, and staining intensity quantification was done using the Operetta Harmony software. Analysis is based on mean intensity levels of each staining within a single well compared to mean intensity levels in other wells.
(§1) Cells were then treated with each of the six compounds for three days. Each compound had both a young and old untreated control, as well as the three pre-determined concentrations for both young and old cells. In addition, a six-well plate was set up for Decitabine, Zebularine, Chaetocin and SW155246, with an additional 3 cm plate for use as untreated controls for quantification of global levels of DNA methylation. After treatment, cells were stained with immunofluorescence for HP1α, H1, γH2Ax, Lamin B1, H3K9me3 and […].

[2] = system: global DNA levels of 5-mC methylation; assay: Global 5-mC DNA methylation quantification (colorimetric Methylflash kit) in treated fibroblasts; format: cell-based, human; conditions: 3 days of treatment, young and old fibroblasts, three concentrations
Method: Genomic DNA was extracted from treated cell samples using the Quick-gDNA MicroPrep kit (Zymo). Global levels of DNA methylation were measured using the colorimetric Methylflash Methylated DNA quantification kit (Epigentek) according to manufacturer instructions, and read using the PerkinElmer ENSPIRE plate reader. gDNA sample size was 50 ng. Analysis was performed according to manufacturer instructions.
as §1

Row | SMILES | effect on markers in young cells compared to old cells [1] | levels of the five markers of a younger state (H1, HP1α, H3K9me3, H3K27me3, LaminB1) ([1]; young and old fibroblasts) | levels of the five markers of a younger state (H1, HP1α, H3K9me3, H3K27me3, LaminB1) ([1]; young and old fibroblasts, listed as rapamycin) | effect on markers in young cells compared to old cells ([1]; listed as rapamycin) | levels of γH2AX (DNA damage marker, marker of old cellular age) ([1]; 3-day treatment, primary fibroblasts from young and old individuals, immunofluorescence vs untreated control) | shape of youthful marker expression over the three doses (C1-C3) ([1]; 3-day treatment, in some cases, highest dose gave lower expression than middle or lower dose) | expression of the six markers tested ([1]; 3-day treatment, young and old fibroblasts) | global levels of 5-mC DNA methylation [2]
1 | CO[C@H]1C[C@@H]2CC[C@@H](C)[C@@](O)(O2)C(=O)C(=O)N2CCCC[C@H]2C(=O)O[C@H]([C@H](C)C[C@@H]2CC[C@@H](O)[C@H](OC)C2)CC(=O)[C@H](C)/C=C(\C)[C@@H](O)[C@@H](OC)C(=O)[C@H](C)C[C@H](C)/C=C/C=C/C=C/1C [Rapamycin] | greater effect on young cells than old cells | an increase | increased | greater in young cells compared to old cells | increased | – | – | –
2 | Nc1ncn([C@H]2C[C@H](O)[C@@H](CO)O2)c(=O)n1 [Decitabine, 5-aza-2-deoxycytidine] | – | – | – | – | – | inverted U shaped curve | modulated | decrease
